Assay [1] deals with T1, Alexa Fluor 488-labelled Mad2^F141A (UniProt Q13257 1-205, F141A, Alexa 488 C5 maleimide, covalent label (residue not stated)).
T1 construct: Mad2, full length, Phe141 replaced by Ala; monomeric O-Mad2 after labelling; Labelled form of m2; also called Alexa-Mad2^F141A; Alexa-488-Mad2^F141A; source: purified as described [14], labelled with Alexa 488 C5 maleimide, separated from free dye on Superdex-75
Briefly: SEC; Superdex-75 10/30 column; PBS; both purified.

Amino acid sequences for entries named in this document (tags omitted). A change or cut given only in a name is not applied to a line headed by its entry.
UniProt Q13257: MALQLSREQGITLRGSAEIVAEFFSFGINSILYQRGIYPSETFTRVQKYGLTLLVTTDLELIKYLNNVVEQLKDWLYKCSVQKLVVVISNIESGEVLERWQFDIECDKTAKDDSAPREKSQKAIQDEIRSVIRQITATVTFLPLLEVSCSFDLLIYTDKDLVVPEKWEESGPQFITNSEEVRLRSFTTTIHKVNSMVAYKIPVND

The target in a further assay is T2, Full-length Mad2^F141A (UniProt Q13257 1-205, F141A).
T2 construct: Mad2, full length, Phe141 replaced by Ala; purified as a monomer in the open (O-Mad2) conformation; Unlabelled form; source: purified as described [14], final size-exclusion chromatography on Superdex-75 in PBS
Briefly: SEC; Superdex-75 10/30 column; PBS; both purified. Background: Size exclusion chromatography separates by hydrodynamic size, large species first.

2 substances from paper PMC2621267, “The Influence of Catalysis on Mad2 Activation Dynamics” (PLoS Biology, 2009) can be followed below.

No constants are given. Whether binding was seen depends on the method and setting.

As to “Alexa Fluor 488-labelled Mad2^F141A (from UniProt Q13257 1-205)”, the binding result in assay [1] is “no binding”.
Turning to “Full-length Mad2^F141A (from UniProt Q13257 1-205)”, the binding result with Full-length Mad2^F141A is “no binding”.
